At least one structure is not confirmed: it was looked up by name or label, or the drawing left a doubt.
System: MCH receptors
Assay: MCH receptor activity class (method not given)
Conditions: MCH receptor activity class 1-3 (percent of control at 10^-7 M or IC50)

| Structure (SMILES) | class |
| --- | --- |
| CN(C)c1ccnc(N[C@H]2CC[C@@H](NC(=S)Nc3c(Br)cc(Br)cc3Br)CC2)n1 [compound 2318, N-(cis-4-{[4-(dimethylamino)pyrimidin-2-yl]amino}cyclohexyl)-N′-(2,4,6-tribromophenyl)thiourea] | 1 (Class 1: The value of percent of control at 10^−7 M was less than 40% or the value of IC50 was less than 50 nM.) |
| CN(C)c1cc(N[C@H]2CC[C@@H](CNC(=O)Nc3c(Br)cc(Br)cc3Br)CC2)nc2ccccc12 [compound 2370, N-[(cis-4-{[4-(dimethylamino)quinolin-2-yl]amino}cyclohexyl)methyl]-N′-(2,4,6-tribromophenyl)urea] | 1 (Class 1: The value of percent of control at 10^−7 M was less than 40% or the value of IC50 was less than 50 nM.) |
| CN(C)c1ccnc(N[C@H]2CC[C@@H](CNC(=O)Nc3c(Br)cc(Br)cc3Br)CC2)n1 [compound 2416, N-[(cis-4-{[4-(dimethylamino)pyrimidin-2-yl]amino}cyclohexyl)methyl]-N′-(2,4,6-tribromophenyl)urea] | 1 (Class 1: The value of percent of control at 10^−7 M was less than 40% or the value of IC50 was less than 50 nM.) |

Same assay, conditions: activity class 1-3: percent of control at 10^-7 M or IC50

| Structure (SMILES) | class |
| --- | --- |
| CN(C)c1nc(N[C@H]2CC[C@@H](NC(=O)Nc3c(Br)cc(Br)cc3Br)CC2)nc2c1CCCC2 [compound 1670, N-(cis-4-{[4-(dimethylamino)-5,6,7,8-tetrahydroquinazolin-2-yl]amino}cyclohexyl)-N′-(2,4,6-tribromophenyl)urea] | 1 (Class 1: The value of percent of control at 10^−7 M was less than 40% or the value of IC50 was less than 50 nM.) |

Same assay, conditions: class by percent of control at 10^-7 M or IC50

| Structure (SMILES) | class |
| --- | --- |
| CN(C)c1ccnc(N[C@H]2CC[C@@H](NC(=O)c3cc(Br)c(Br)s3)CC2)n1 [compound 840, 4,5-dibromo-N-(cis-4-{[4-(dimethylamino)pyrimidin-2-yl]amino}cyclohexyl)thiophene-2-carboxamide] | 2 (Class 2: The value of percent of control at 10^−7 M was from 40% to 60% or the value of IC′50 was from 50 nM to 200 nM.) |
| CN(C)c1nc(N[C@H]2CC[C@@H](NC(=S)Nc3c(Br)cc(Br)cc3Br)CC2)nc2c1CCCC2 [compound 1753, N-(cis-4-{[4-(dimethylamino)-5,6,7,8-tetrahydroquinazolin-2-yl]amino}cyclohexyl)-N′-(2,4,6-tribromophenyl)thiourea] | 1 (Class 1: The value of percent of control at 10^−7 M was less than 40% or the value of IC50 was less than 50 nM.) |
| CN(C)c1cc(N[C@H]2CC[C@@H](NC(=O)Nc3c(Br)cc(Br)cc3Br)CC2)nc2ccccc12 [compound 2100, N-(cis-4-{[4-(dimethylamino)quinolin-2-yl]amino}cyclohexyl)-N′-(2,4,6-tribromophenyl)urea] | 1 (Class 1: The value of percent of control at 10^−7 M was less than 40% or the value of IC50 was less than 50 nM.) |
| CN(C)c1ccnc(N[C@H]2CC[C@@H](NC(=O)Nc3c(Br)cc(Br)cc3Br)CC2)n1 [compound 2190, N-(cis-4-{[4-(dimethylamino)pyrimidin-2-yl]amino}cyclohexyl)-N′-(2,4,6-tribromophenyl)urea] | 1 (Class 1: The value of percent of control at 10^−7 M was less than 40% or the value of IC50 was less than 50 nM.) |
| CN(C)c1cc(N[C@H]2CC[C@@H](NC(=S)Nc3c(Br)cc(Br)cc3Br)CC2)nc2ccccc12 [compound 2273, N-(cis-4-{[4-(dimethylamino)quinolin-2-yl]amino}cyclohexyl)-N′-(2,4,6-tribromophenyl)thiourea] | 1 (Class 1: The value of percent of control at 10^−7 M was less than 40% or the value of IC50 was less than 50 nM.) |

Reference: patent publication US20050197350A1, “Novel quinoline, tetrahydroquinazoline, and pyrimidine derivatives and methods of treatment related to the use thereof” (TAISHO PHARMACEUTICAL CO., LTD., priority 2003, published 2005)
